Laboratory results as given in PubChem BioAssay AID1347422 (Sanford-Burnham Center for Chemical Genomics, 2020).
In all, about 1,000 compounds were measured (“thermal shift dTm”: median about 0.19, highest 2% from about 1.7 on). Some of the results follow. Calls of active or inactive are those of the source.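 How the source made its calls: active means mean rise in melting temperature of at least 1 degC over same-plate control wells; inactive means below that, where a call was filed.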

By UniProt entry, the sequences of proteins in these tests, tags left out. Where a name states a change or a piece, a line headed by the entry shows the natural chain unless it says otherwise.
UniProt O00391: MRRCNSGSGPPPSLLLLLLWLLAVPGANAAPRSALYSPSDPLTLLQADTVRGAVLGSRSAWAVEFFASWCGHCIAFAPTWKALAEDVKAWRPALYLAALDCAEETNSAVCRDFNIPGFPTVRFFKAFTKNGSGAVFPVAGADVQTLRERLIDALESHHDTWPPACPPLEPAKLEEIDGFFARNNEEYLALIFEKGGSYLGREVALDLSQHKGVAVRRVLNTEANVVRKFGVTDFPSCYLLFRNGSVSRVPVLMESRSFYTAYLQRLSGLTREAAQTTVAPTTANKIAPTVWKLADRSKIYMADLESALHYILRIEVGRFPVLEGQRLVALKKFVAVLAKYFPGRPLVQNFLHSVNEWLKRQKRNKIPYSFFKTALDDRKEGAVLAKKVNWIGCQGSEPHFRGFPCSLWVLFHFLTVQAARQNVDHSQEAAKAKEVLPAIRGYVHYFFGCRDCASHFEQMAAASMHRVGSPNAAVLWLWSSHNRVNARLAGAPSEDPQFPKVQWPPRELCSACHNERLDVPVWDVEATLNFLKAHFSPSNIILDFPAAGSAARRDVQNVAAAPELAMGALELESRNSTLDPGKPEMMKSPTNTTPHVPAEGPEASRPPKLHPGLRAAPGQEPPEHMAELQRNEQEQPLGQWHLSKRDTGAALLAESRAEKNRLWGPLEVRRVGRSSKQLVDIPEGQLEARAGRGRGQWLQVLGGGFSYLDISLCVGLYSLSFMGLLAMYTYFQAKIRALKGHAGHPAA

biological target: Sulfhydryl oxidase 1 (Homo sapiens) (UniProt O00391); test: QSOX1 binders by thermal stabilization, confirmation, QSOX1 inhibitor project, biophysical, protein thermal shift, single concentration (AID 1347422); conditions: recombinant hQSOX1 thermal shift, Sypro Orange, at 25 µM, stronger effect = higher value;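 further: dTm is compound Tm minus mean Tm of DMSO-only wells on that plate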

How did the thermal shift dTm turn out when `CN(Cc1ccccn1)c1nccc(-c2cnn(-c3cccc(Cl)c3)c2)n1` was run?
Its thermal shift dTm is 0.1 °C.

With `CC(=O)Nc1ccc(NC(=O)CCc2ccc(C)s2)cc1` as the compound, how does the thermal shift dTm read?
Its thermal shift dTm is 0.21 °C.

With `Cc1ccc(S(=O)(=O)NCC(Nc2ccccc2C)c2ccccc2)cc1` (centres undefined) as the compound, how does the thermal shift dTm read?
Its thermal shift dTm is 0.54 °C.

Which thermal shift dTm does the source give for `CC1CCc2c(c3ccccc3n2C(=O)CSc2n[nH]c(N)n2)C1` (centres undefined) here?
The thermal shift dTm was 0.23 °C.

With `O=C(Nc1ccc2c(c1)CCC2)Nc1ccc(F)cc1F` as the compound, how does the thermal shift dTm read?
Its thermal shift dTm is 0.24 °C.

With `CC(=O)Oc1ccc2cc(-c3ccc(Cl)cc3)c(=O)oc2c1` as the compound, how does the thermal shift dTm read?
Its thermal shift dTm is 0.11 °C.

Which thermal shift dTm does the source give for `O=C(Nc1ccc2c(c1)OCCO2)c1ccc(Cl)s1` here?
Its thermal shift dTm is inactive: -0.1 °C.

With `O=C(CN1C(=O)C2C3C=CC(C3)C2C1=O)Nc1ccc(Br)cc1` (centres undefined) as the compound, how does the thermal shift dTm read?
Its thermal shift dTm is inactive: -0.12 °C.

With `COc1cccc(-c2nc3c(cnn3Cc3cccc(Cl)c3)[nH]2)c1O` as the compound, how does the thermal shift dTm read?
Its thermal shift dTm is inactive: 0 °C.

With `O=C1OC(c2ccccc2)OC(=O)C1=Cc1ccc(-c2cccc(Br)c2)o1` (centres undefined) as the compound, how does the thermal shift dTm read?
Its thermal shift dTm is 0.47 °C.

`O=C(Nc1ccc(-c2noc(/C=C/c3ccccc3)n2)cc1)c1ccccc1F` was tested. Which thermal shift dTm did it give?
The thermal shift dTm was inactive: -0.18 °C.

How did the thermal shift dTm turn out when `Cc1noc(C)c1C(=O)Nc1ccc(S(=O)(=O)N2CCc3ccccc3C2)cc1` was run?
The thermal shift dTm was 0.1 °C.

`O=c1[nH]c(=O)n(Cc2ccco2)c(O)c1/C=C1\C=Nc2ccccc21` was tested. Which thermal shift dTm did it give?
Its thermal shift dTm is 0.05 °C.

Which thermal shift dTm does the source give for `CCOCN(C(=O)Cn1c(COc2ccc(OC)cc2)nc2ccccc21)c1c(C)cccc1CC` here?
Its thermal shift dTm is 0.05 °C.

`NS(=O)(=O)c1ccc(NC(=O)c2ccc(F)c(F)c2)cc1` was tested. Which thermal shift dTm did it give?
The thermal shift dTm was 0.09 °C.

`N/C(=N\c1nc(-c2cccs2)cc(C(F)(F)F)n1)Nc1ccc2c(c1)OCCO2` was tested. Which thermal shift dTm did it give?
Its thermal shift dTm is 0.35 °C.

For `Cc1ccc(OCCCn2cnc3ccccc3c2=O)c(I)c1`, which thermal shift dTm is on record?
Its thermal shift dTm is 0.11 °C.

Which thermal shift dTm does the source give for `CCc1ccc(NC(=O)Nc2cccc(NC(C)=O)c2)cc1` here?
Its thermal shift dTm is inactive: -0.42 °C.

For `Cc1cccc(NC(=O)Nc2ccc(-c3cn4cccnc4n3)cc2)c1`, which thermal shift dTm is on record?
The thermal shift dTm was 0.56 °C.

How did the thermal shift dTm turn out when `O=C(Nc1cccc(-c2cc3ccccc3oc2=O)c1)c1ccccc1` was run?
Its thermal shift dTm is 0.19 °C.

`CCOc1ccc(Nc2nc(-c3ccc(Cl)cc3)nc3ccccc23)cc1` was tested. Which thermal shift dTm did it give?
Its thermal shift dTm is inactive: -0.13 °C.

`Cc1ccc2c(c1)CN(Cc1cccc(O)c1)CC(c1ccsc1)O2` (centres undefined) was tested. Which thermal shift dTm did it give?
Its thermal shift dTm is 0.56 °C.

How did the thermal shift dTm turn out when `Cc1ccc(S(=O)(=O)Nc2ccc(C(=O)Nc3ccccc3F)cc2)cc1` was run?
Its thermal shift dTm is 0.05 °C.

`O=C(COc1ccc(Cl)cc1)NCCSCc1ccc(Cl)c(Cl)c1` was tested. Which thermal shift dTm did it give?
Its thermal shift dTm is 0.11 °C.

How did the thermal shift dTm turn out when `COc1ccccc1NC(=S)c1nc2ccccc2s1` was run?
The thermal shift dTm was 0.11 °C.

With `O=C(CN1C(=O)c2ccccc2C1=O)Nc1ccc2ccccc2c1` as the compound, how does the thermal shift dTm read?
Its thermal shift dTm is 0.12 °C.

How did the thermal shift dTm turn out when `CCN(CC)C(=O)c1cccc(NC(=O)Nc2ccc(Cl)cc2)c1` was run?
Its thermal shift dTm is 0.23 °C.

For `C=CCc1ccc(OCCCCOc2cccc3cccnc23)c(OC)c1`, which thermal shift dTm is on record?
The thermal shift dTm was inactive: -0.09 °C.

Which thermal shift dTm does the source give for `COc1ccc(CNC(=S)NC(C)C23CC4CC(CC(C4)C2)C3)cc1` (centres undefined) here?
Its thermal shift dTm is 0.68 °C.

How did the thermal shift dTm turn out when `COc1ccc(Cl)cc1S(=O)(=O)Nc1ccc(C(N)=O)cc1` was run?
The thermal shift dTm was 0.32 °C.

Which thermal shift dTm does the source give for `Cc1ccc(NC(=O)CC2COc3ccccc3O2)cc1Cl` (centres undefined) here?
Its thermal shift dTm is 0.35 °C.

With `COc1ccc2c(CCNC(=O)c3ccccc3Br)c[nH]c2c1` as the compound, how does the thermal shift dTm read?
Its thermal shift dTm is 0.02 °C.

How did the thermal shift dTm turn out when `CC(=O)Nc1ccc2nc(NC(=O)COc3cc(C)ccc3C(C)C)sc2c1` was run?
Its thermal shift dTm is inactive: -0.04 °C.

`O=C(COc1ccccc1)Nc1cccc(-c2cnc3ccccc3n2)c1` was tested. Which thermal shift dTm did it give?
Its thermal shift dTm is 0.15 °C.

For `CCC(C)c1ccc(OCCCOc2ccccc2/C=C2\SC(N)=NC2=O)cc1` (centres undefined), which thermal shift dTm is on record?
The thermal shift dTm was 0.24 °C.

How did the thermal shift dTm turn out when `COc1cc(-n2nnc(C(=O)NCCc3ccccc3)c2N)ccc1Cl` was run?
The thermal shift dTm was 0.27 °C.

For `CC1CN=C(N(C(=O)Nc2ccccc2)c2ccc(F)cc2F)S1` (centres undefined), which thermal shift dTm is on record?
Its thermal shift dTm is 0.65 °C.

`Cc1ccc(-c2csc(Nc3ccccn3)n2)cc1C` was tested. Which thermal shift dTm did it give?
The thermal shift dTm was 0.01 °C.

Which thermal shift dTm does the source give for `CCOC(=O)C1=C(C)N=C2SCC(=O)N2C1c1ccc(Br)cc1` (centres undefined) here?
Its thermal shift dTm is inactive: -0.09 °C.

With `Cc1ccnc(Nc2nc(-c3ccc(Cl)cc3)cs2)c1` as the compound, how does the thermal shift dTm read?
Its thermal shift dTm is inactive: -0.13 °C.

How did the thermal shift dTm turn out when `CCOc1ccccc1NC(=O)CN(c1cc(Cl)ccc1Cl)S(C)(=O)=O` was run?
Its thermal shift dTm is inactive: -8.23 °C.

Which thermal shift dTm does the source give for `ONc1nc(-c2ccccc2)cc(-c2ccc(F)cc2)n1` here?
Its thermal shift dTm is 0.32 °C.

`CCN1CCOC(CC(=O)Nc2ccc(Cl)c(C(F)(F)F)c2)C1=O` (centres undefined) was tested. Which thermal shift dTm did it give?
Its thermal shift dTm is active: 1.02 °C.

With `COc1ccc(NC(=O)Nc2cccc(Cn3cc(Cl)cn3)c2)cc1` as the compound, how does the thermal shift dTm read?
Its thermal shift dTm is active: 2.14 °C.

Which thermal shift dTm does the source give for `COC(=O)c1cccc(NC(=O)c2ccc(Cl)s2)c1` here?
Its thermal shift dTm is 0.04 °C.

For `CC(=O)Nc1ccc(OC(=O)c2cccc(Br)c2)cc1`, which thermal shift dTm is on record?
The thermal shift dTm was inactive: -0.04 °C.

`N#Cc1cnc(SCC(=O)Nc2ccc(Cl)c(Br)c2)nc1N` was tested. Which thermal shift dTm did it give?
Its thermal shift dTm is 0.32 °C.

`CC1Oc2ccc(-c3csc(NC(=O)COc4ccc(Cl)cc4)n3)cc2NC1=O` (centres undefined) was tested. Which thermal shift dTm did it give?
Its thermal shift dTm is inactive: -0.1 °C.

For `O=C(Nc1ccc(Cl)cc1)Nc1cccc(C(=O)NCc2ccco2)c1`, which thermal shift dTm is on record?
The thermal shift dTm was active: 3.11 °C.

`OCc1ccc(OCc2ccc(Cl)cc2)c(Br)c1` was tested. Which thermal shift dTm did it give?
Its thermal shift dTm is 0.16 °C.

How did the thermal shift dTm turn out when `CCSC1=N/C(=C\c2ccc(-c3ccc(Br)cc3)o2)C(=O)S1` was run?
The thermal shift dTm was 0.25 °C.

For `CCC(=O)c1ccc(-c2cccc(-c3ccn[nH]3)c2)s1`, which thermal shift dTm is on record?
Its thermal shift dTm is 0.47 °C.

For `COc1ccc(OC)c(NC(=O)C(=S)NCc2ccco2)c1`, which thermal shift dTm is on record?
The thermal shift dTm was 0.21 °C.

How did the thermal shift dTm turn out when `O=C(Nc1nc2ccc(S(=O)(=O)N3CCCC3)cc2s1)c1cccs1` was run?
Its thermal shift dTm is 0.29 °C.
